Laboratory results as given in patent publication US20190284272A1 (published 2019).
Results are given in words; binding and its absence hold for the method and conditions named. Some entries that bind do so weakly or less than the wild type.

T1: equine IL-31 protein (Equine_IL31) (equine)
T1 sequence: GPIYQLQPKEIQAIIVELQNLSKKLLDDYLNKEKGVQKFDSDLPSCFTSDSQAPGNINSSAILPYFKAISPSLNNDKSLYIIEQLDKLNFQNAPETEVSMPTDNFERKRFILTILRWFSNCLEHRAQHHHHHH

B1: ZIL1 (antibody, V domains shown)
VH: EVQLVESGGDLVKPGGSLRLSCVASGFTFSSYGMSWVRQAPGKGLQWVAHINSGGSSTYYADAVKGRFTISRDNAKNTLYLQMNSLRAEDTAVYYCVEVYTTLAAFWTDNFDYWGQGTLVTVSS
VL: QSVLTQPTSVSGSLGQRVTISCSGSTNNIGILAATWYQQLPGKAPKVLVYSDGNRPSGVPDRFSGSKSGNSATLTITGLQAEDEADYYCQSFDTTLDAYVFGSGTQLTVLR
B2: ZIL9 (antibody, V domains shown)
VH: EVQLVESGGDLVKPPGSLRLSCVASGFTFSSYDMTWVRQAPGKGLQWVADVNSGGTGTAYAVAVKGRFTISRDNAKKTLYLQMNSLRAEDTAVYYCAKLGVRDGLSVWGQGTLVTVSS
VL: SSVLTQPPSVSVSLGQTATISCSGESLNEYYTQWFQQKAGQAPVLVIYRDTERPSGIPDRFSGSSSGNTHTLTISGARAEDEADYYCESAVDTGTLVFGGGTHLAVLR

Target: T1, equine IL-31 protein (Equine_IL31) (equine)
Assay: Biacore, IL-31 surface, single antibody concentration (FIG. 4)

Binder | binding
B1 | binds
B2 | binds
